The supplement of paper PMC12823440, “Inhibitors supercharge kinase turnover through native proteolytic circuits” (Nature, 2025)
Counter-ions that a name gives are not always drawn. The list shows a part of the results. Hit calls seldom repeat between salt and free forms of one compound.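 Kinases, fused to nanoluciferase, were expressed in K562 cells; luminescence was measured every 4 h from 2 to 18 h as percent of control (DMSO = 100%, positive control = 0%). A time point is decreased if signal falls significantly (2 sigma). Hits were called by the authors by a rule that is not shown; the count of time points alone does not decide it.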

Sequences of proteins named here, by UniProt entry; tags and fusion partners are left off. A change or cut given only in a name is not applied to a line headed by its entry.
UniProt Q05397, whole entry, looked up: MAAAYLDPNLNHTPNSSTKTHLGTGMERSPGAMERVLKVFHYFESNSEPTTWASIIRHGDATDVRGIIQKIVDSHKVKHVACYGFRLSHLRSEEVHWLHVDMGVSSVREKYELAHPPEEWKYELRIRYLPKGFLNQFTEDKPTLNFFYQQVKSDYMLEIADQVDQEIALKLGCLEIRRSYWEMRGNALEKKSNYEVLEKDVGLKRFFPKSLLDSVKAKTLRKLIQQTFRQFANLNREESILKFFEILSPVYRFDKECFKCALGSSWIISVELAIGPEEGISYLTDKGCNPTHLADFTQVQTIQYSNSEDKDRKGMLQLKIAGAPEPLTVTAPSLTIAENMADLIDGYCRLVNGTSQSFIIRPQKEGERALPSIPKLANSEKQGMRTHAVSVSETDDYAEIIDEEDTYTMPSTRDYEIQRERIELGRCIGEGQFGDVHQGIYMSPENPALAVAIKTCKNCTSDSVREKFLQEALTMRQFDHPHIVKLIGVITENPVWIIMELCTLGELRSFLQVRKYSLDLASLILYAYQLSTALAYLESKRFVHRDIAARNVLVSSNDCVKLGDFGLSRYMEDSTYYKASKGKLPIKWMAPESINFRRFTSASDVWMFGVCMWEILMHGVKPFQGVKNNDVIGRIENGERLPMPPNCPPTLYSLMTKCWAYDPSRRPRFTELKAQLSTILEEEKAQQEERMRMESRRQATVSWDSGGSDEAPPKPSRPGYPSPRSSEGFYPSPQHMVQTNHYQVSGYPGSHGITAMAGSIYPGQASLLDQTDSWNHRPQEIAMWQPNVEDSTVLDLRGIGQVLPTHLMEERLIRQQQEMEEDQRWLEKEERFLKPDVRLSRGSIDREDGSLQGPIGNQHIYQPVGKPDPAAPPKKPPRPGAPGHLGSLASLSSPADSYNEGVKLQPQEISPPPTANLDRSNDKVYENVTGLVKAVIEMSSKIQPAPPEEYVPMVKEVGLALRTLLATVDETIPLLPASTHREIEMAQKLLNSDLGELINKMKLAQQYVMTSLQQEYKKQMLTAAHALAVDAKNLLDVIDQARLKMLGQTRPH
UniProt Q9BRS2: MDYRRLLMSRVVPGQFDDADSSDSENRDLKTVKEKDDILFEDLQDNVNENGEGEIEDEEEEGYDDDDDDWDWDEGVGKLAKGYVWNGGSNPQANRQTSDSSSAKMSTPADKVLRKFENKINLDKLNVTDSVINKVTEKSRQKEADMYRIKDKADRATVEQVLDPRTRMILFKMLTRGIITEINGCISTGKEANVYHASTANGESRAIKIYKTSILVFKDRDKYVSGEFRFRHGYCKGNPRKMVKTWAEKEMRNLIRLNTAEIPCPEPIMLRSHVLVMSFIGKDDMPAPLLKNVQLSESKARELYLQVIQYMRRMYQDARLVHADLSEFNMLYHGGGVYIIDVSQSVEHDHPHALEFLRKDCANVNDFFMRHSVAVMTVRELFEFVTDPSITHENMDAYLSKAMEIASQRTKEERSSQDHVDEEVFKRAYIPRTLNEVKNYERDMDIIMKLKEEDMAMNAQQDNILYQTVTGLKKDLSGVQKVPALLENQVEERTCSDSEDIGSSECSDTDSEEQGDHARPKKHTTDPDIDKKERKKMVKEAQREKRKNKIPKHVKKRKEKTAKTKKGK
UniProt Q01974, whole entry: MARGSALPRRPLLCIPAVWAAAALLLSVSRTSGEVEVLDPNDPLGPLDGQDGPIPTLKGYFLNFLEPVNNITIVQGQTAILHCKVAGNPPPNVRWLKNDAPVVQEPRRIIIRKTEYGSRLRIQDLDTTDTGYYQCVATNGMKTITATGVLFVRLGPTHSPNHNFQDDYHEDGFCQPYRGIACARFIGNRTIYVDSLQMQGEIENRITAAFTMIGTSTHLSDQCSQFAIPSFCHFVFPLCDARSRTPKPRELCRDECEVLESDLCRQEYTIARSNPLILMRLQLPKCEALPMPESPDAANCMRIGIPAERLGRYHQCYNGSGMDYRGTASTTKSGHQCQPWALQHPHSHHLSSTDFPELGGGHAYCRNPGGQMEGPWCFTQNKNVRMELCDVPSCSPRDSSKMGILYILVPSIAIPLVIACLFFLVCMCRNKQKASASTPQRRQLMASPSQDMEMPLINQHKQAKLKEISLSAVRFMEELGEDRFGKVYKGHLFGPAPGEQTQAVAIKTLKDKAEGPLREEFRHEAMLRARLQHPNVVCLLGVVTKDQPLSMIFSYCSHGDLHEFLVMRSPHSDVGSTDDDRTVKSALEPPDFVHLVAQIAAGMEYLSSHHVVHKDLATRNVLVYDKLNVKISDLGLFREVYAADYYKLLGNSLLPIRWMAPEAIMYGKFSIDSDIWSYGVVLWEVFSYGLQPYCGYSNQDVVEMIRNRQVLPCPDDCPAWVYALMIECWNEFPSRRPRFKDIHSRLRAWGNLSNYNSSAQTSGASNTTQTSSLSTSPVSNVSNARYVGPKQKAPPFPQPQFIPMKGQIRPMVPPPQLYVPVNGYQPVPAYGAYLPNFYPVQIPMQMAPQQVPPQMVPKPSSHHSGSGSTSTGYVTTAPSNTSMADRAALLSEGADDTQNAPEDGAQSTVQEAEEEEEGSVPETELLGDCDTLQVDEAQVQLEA
UniProt Q15418, whole entry: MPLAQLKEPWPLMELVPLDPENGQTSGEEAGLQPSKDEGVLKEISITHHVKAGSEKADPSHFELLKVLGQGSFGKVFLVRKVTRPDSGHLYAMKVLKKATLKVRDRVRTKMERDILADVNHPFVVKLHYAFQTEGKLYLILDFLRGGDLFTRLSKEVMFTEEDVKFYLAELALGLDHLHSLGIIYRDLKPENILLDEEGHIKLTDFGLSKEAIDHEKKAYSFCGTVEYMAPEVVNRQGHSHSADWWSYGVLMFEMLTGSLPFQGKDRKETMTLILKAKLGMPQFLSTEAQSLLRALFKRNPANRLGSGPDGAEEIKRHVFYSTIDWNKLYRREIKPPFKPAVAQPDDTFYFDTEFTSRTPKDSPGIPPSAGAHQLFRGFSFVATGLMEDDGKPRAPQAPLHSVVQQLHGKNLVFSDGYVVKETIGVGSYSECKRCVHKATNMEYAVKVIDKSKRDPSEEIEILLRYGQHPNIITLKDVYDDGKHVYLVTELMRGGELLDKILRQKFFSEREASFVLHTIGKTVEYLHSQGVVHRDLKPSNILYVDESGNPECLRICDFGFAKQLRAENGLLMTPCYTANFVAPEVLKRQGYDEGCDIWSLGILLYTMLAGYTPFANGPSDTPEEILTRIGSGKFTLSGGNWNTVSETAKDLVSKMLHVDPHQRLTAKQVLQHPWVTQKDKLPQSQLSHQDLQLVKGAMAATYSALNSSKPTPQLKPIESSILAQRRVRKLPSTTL
UniProt Q9NYA1, whole entry: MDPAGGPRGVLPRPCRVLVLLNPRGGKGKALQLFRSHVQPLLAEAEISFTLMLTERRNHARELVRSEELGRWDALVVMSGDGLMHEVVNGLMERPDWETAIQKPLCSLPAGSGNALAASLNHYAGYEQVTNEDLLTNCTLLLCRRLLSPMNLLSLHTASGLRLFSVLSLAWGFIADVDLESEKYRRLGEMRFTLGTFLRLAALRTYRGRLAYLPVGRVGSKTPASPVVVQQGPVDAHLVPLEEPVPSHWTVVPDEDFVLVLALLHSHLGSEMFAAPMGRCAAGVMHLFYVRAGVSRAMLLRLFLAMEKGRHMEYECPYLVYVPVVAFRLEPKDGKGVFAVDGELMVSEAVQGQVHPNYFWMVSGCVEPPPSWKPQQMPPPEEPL
UniProt Q9Y6E0: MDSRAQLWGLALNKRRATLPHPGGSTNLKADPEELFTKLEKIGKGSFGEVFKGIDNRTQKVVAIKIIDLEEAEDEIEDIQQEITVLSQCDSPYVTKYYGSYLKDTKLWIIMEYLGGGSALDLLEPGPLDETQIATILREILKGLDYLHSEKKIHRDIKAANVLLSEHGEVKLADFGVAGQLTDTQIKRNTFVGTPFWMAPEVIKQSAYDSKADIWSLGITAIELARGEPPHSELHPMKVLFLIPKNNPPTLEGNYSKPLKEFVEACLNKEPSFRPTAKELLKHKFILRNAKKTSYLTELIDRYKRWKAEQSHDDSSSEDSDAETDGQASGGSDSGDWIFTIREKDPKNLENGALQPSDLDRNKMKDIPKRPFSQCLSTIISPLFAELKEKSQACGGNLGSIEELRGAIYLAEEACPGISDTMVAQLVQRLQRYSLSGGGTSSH
UniProt Q15208: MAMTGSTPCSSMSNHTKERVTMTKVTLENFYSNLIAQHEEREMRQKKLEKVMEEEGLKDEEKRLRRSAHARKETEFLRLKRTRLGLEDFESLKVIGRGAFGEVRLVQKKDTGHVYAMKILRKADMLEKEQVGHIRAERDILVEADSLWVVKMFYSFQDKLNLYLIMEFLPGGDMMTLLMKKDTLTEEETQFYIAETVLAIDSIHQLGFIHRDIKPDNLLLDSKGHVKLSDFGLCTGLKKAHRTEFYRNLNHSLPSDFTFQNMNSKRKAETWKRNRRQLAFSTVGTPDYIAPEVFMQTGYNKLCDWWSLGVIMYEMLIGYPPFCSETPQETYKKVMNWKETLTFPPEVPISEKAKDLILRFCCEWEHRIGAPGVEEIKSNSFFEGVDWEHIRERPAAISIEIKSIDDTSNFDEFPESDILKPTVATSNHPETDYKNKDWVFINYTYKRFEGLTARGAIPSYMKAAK
UniProt P42680: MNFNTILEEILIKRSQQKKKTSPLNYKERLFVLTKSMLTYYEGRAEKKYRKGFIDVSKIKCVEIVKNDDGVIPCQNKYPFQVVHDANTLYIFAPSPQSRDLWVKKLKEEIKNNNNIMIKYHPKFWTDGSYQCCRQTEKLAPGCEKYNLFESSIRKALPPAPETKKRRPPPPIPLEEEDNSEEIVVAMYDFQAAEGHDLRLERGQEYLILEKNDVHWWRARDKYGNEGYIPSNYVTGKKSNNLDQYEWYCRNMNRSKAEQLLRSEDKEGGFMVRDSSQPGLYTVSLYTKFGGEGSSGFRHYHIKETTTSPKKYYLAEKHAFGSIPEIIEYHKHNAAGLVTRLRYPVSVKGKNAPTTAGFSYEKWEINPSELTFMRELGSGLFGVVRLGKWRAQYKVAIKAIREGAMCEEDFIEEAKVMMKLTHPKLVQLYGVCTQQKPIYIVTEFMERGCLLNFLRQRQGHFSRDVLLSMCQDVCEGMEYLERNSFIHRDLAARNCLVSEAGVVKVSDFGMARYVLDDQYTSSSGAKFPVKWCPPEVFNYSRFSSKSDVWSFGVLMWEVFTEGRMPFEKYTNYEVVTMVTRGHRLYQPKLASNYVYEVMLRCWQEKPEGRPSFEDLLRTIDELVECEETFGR
UniProt Q6PHR2: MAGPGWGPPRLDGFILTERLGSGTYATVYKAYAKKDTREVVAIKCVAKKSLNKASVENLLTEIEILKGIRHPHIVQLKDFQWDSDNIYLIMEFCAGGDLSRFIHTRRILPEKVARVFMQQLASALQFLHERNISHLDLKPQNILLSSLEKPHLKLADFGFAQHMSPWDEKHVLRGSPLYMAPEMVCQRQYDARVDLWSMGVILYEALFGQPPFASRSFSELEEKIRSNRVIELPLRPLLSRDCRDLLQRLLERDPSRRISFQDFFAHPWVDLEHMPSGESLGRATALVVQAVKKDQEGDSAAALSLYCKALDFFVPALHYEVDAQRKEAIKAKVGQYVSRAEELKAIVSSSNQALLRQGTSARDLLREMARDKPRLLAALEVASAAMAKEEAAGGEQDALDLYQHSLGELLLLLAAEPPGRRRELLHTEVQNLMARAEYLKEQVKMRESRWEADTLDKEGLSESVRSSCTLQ

Experiments:
Test in all cases: number of time points (of 5) at which kinase-Nluc abundance scored as decreased, DMSO-normalised (count); higher = more persistent destabilization
Conditions in all cases: K562; 2-18 h
PRKCA = PRKCA (UniProt P17252)
PTK2 = PTK2 (UniProt Q05397)
PTK2B = PTK2B (UniProt Q14289)
RAF1 = RAF1 (UniProt P04049)
[1] = biological target: RAF1_S257L (clone: RAF1_mut) (UniProt P04049)
RET = RET (UniProt P07949)
[2] = biological target: RET_M918T (clone: RET_mut) (UniProt P07949)
RIOK1 = RIOK1 (UniProt Q9BRS2)
RIPK1 = RIPK1 (UniProt Q13546)
RIPK2 = RIPK2 (UniProt O43353)
ROR2 = ROR2 (UniProt Q01974)
RPS6KA1 = RPS6KA1 (UniProt Q15418)
SPHK1 = SPHK1 (UniProt Q9NYA1)
SRC = SRC (UniProt P12931)
STK24 = STK24 (UniProt Q9Y6E0)
STK38 = STK38 (UniProt Q15208)
SYK = SYK (UniProt P43405)
TEC = TEC (UniProt P42680)
TYK2 = TYK2 (UniProt P29597)
ULK3 = ULK3 (UniProt Q6PHR2)

Measured: number of time points

COc1cc(N2CCN(C)CC2)ccc1Nc1ncc2c(n1)N(C1CCC1)C(=O)N(c1c(C)cccc1C)C2 (2.5 µM)
0: all assays above

CNC(=O)c1ccc(-c2cnc3cnc(C(=O)N(C)c4ccc(Cl)cc4)cn23)cc1 (2.5 µM)
0: all assays above

OC[C@H]1O[C@@H](Oc2cc3c(O)cc(O)cc3[o+]c2-c2cc(O)c(O)c(O)c2)[C@H](O)[C@@H](O)[C@@H]1O [Delphinidin 3-glucoside (chloride)] (10 µM)
0: all assays above

Nc1ncnc2c1c(-c1ccc(Oc3ccccc3)cc1)nn2C1CCCNC1 (racemic) (2.5 µM)
0: all assays above

CCn1c(C(=O)N(C2CC2)C2CC2)cc2c3c(ncn3C)c(Nc3cc(C)n(C)n3)nc21 (10 µM)
0: all assays above

O=C1Nc2nc(-c3c(O)cccc3OCC3CC3)cc([C@@H]3CCCNC3)c2CO1 [Bay 65-1942 (hydrochloride)] (10 µM)
2: [1]
3: RIPK1 | RIPK2 | TEC
0: all other assays above

CS(=O)(=O)c1ccc(-c2cnc(N)c(C(=O)Nc3ccccc3)n2)cc1 (10 µM)
0: all assays above

Cc1ccc(Oc2nc3cc(-c4ccc5c(ccn5C)c4)c(Cl)cc3[nH]2)cc1C(=O)O (10 µM)
0: all assays above

NCc1ccc(Nc2ncc(F)c(Nc3ccccc3)n2)cc1 (10 µM)
0: all assays above

Cc1csc(-c2nnc(Nc3ccc(Oc4ncccc4-c4ccnc(N)n4)cc3)c3ccccc23)c1 (2.5 µM)
0: all assays above

CC(C)CC1(O)CCN(C(=O)c2ccc(NS(=O)(=O)c3cccc4nccnc34)cc2)CC1 (10 µM)
0: all assays above

CC1=C2C(=O)O[C@@H](c3ccoc3)[C@]2(C)CCC1 [Fraxinellone] (10 µM)
0: all assays above

Cn1cc(Nc2nccc(N3C[C@H]4CC[C@@H](C3)N4C(=O)[C@@H]3CC3(F)F)n2)cn1 (10 µM)
0: all assays above

COc1cc2c[n+](C)c3c4cc5c(cc4ccc3c2cc1OC)OCO5 [Nitidine (chloride)] (2 µM)
0: all assays above

COc1cc2ncn(-c3cc(OCc4ccccc4S(C)(=O)=O)c(C#N)s3)c2cc1OC (10 µM)
0: all assays above

Cc1cc(Nc2cc3ncccc3c(N[C@@H]3C[C@H]4CC[C@@H](C3)N4CCC#N)n2)n[nH]1 [Izencitinib] (10 µM)
0: all assays above

COc1cc(S(C)(=O)=O)ccc1Nc1nc2ccc(-c3ccc(NC(=O)[C@H](C)c4ccc(F)cc4)cc3)cn2n1 [Empesertib] (10 µM)
0: all assays above

N#CC(c1ccnc(NCCc2cccnc2)n1)c1nc2ccccc2s1 (stereo not given) (10 µM)
0: all assays above

CC[C@@]1(c2ccccc2)C2=C(CC(C)(C)CC2=O)Nc2[nH]ncc21 (10 µM)
0: all assays above

COc1cccc(-n2c(=O)[nH]c3cc(Cl)n(-c4ccc(-c5cccc(OC)c5O)cc4)c3c2=O)c1 (2.5 µM)
0: all assays above

C=CC(=O)Nc1cccc(C)c1Nc1ncc2cc(-c3c(Cl)c(OC)cc(OC)c3Cl)ccc2n1 (2.5 µM)
4: [1]
1: RIOK1
2: ULK3
0: all other assays above

Cc1ccc2nc(NC(=O)CSc3nc4c(c(=O)n3-c3ccccc3)SCC4)sc2c1 (2 µM)
0: all assays above

CC(C)(C)c1ccc(S(=O)(=O)Nc2ccc(-n3ccnc3)cc2)cc1 (10 µM)
0: all assays above

c1cc2c(cc1O[C@H]1OC[C@H]3[C@@H]1CO[C@@H]3c1ccc3c(c1)OCO3)OCO2 [Sesamolin] (10 µM)
0: all assays above

Cc1ccc(-c2c(C(=O)CF)n(CCCO)c3ncnc(N)c23)cc1 (10 µM)
0: all assays above

O=C(NCCO)c1ccc2c(c1)nc(Nc1cccc(Cl)c1)c1ccncc12 [CK2 inhibitor 2] (10 µM)
0: all assays above

O=C(Nc1cc(Oc2cc(F)c(NC(=O)C3(C(=O)Nc4ccc(F)cc4)CC3)cc2F)ccn1)C1CC1 [Altiratinib] (10 µM)
4: PTK2 | SPHK1
0: all other assays above

O=C(/C=C/c1ccc(O[C@@H]2O[C@H](CO)[C@@H](O)[C@H](O)[C@H]2O[C@@H]2OC[C@](O)(CO)[C@H]2O)cc1)c1ccc(O)cc1O [Isoliquiritin apioside] (10 µM)
0: all assays above

Cn1cnc(-c2cc3nccc(Oc4ccc(NC(=S)NC(=O)Cc5ccccc5)cc4F)c3s2)c1 [MGCD-265 analog] (10 µM)
4: STK24 | TEC | ULK3
5: PTK2
3: ROR2 | SPHK1
1: RIPK1 | RPS6KA1
0: all other assays above

Cc1cc([C@H](C)Nc2ccccc2)c2oc(N3CCOCC3)cc(=O)c2c1 (10 µM)
0: all assays above

Cc1cc(-c2cc(OC(=O)c3ccccc3)ccc2Cl)cc2nnc(Nc3ccc(OCCN4CCCC4)cc3)nc12 (0.5 µM)
2: [1]
4: RIPK2
0: all other assays above

C[C@@H]1O[C@@H](O[C@H]2[C@H](Oc3cc(O)c4c(=O)cc(-c5ccc(O)cc5)oc4c3)O[C@H](CO)[C@@H](O)[C@@H]2O)[C@H](O)[C@H](O)[C@H]1O [Rhoifolin] (10 µM)
0: all assays above

Nc1ncc(-c2cccc(N3CCNCC3)c2)cc1C(=O)Nc1ccncc1 [PKC-iota inhibitor 1] (10 µM)
0: all assays above

CN1CCN(c2ccc(C(=O)Nc3cc(-c4cccc(NS(=O)(=O)c5ccccc5)c4)[nH]n3)cc2)CC1 [BPR1J-097 Hydrochloride] (2.5 µM)
1: [1] | ULK3
0: all other assays above

Cn1c(=O)c(F)c(Nc2ccc(I)cc2F)c2c(=O)n(C[C@@H](O)CO)cnc21 (10 µM)
1: RAF1 | ULK3
0: all other assays above

CNCc1ccccc1-c1csc([C@@H](C)Nc2nc(C)nc3cc(OC)c(OC)cc23)c1 (2.5 µM)
2: [1] | ULK3
1: RIOK1 | RIPK1
0: all other assays above

O=C(NCCCNc1nc(Nc2cccc(NC(=O)N3CCCC3)c2)ncc1I)c1cccs1 (2.5 µM)
1: ULK3
0: all other assays above

CN(C)CCN(Cc1ccc(Cl)cc1)c1ccccn1 [Chloropyramine hydrochloride] (10 µM)
4: STK38
0: all other assays above

CCn1c(=O)c(-c2ccc(-c3cncc(C)n3)cc2Cl)cc2cnc(NCCC3CCN(C)CC3)nc21 (10 µM)
0: all assays above

O=C(O)c1cc(O)ccc1O [2,5-Dihydroxybenzoic acid] (10 µM)
0: all assays above

Three structures out of the list, ordered by molar mass, falling.
O=C(Nc1cc(Oc2cc(F)c(NC(=O)C3(C(=O)Nc4ccc(F)cc4)CC3)cc2F)ccn1)C1CC1 [Altiratinib] (10 µM)
4: PTK2 | SPHK1
0: all other assays above

Cc1csc(-c2nnc(Nc3ccc(Oc4ncccc4-c4ccnc(N)n4)cc3)c3ccccc23)c1 (2.5 µM)
0: all assays above

Cc1cc([C@H](C)Nc2ccccc2)c2oc(N3CCOCC3)cc(=O)c2c1 (10 µM)
0: all assays above

Carrying on:

Cn1nccc1Nc1nccc(-c2cc3c(s2)C(C)(C)N(CCN2CCOCC2)C3=O)n1 (10 µM)
0: all assays above

CCN1CCN(Cc2ccc(Nc3ncc(F)c(-c4cc(F)c5nc(CO)n(C(C)C)c5c4)n3)nc2)CC1 [Abemaciclib metabolite M20] (2 µM)
3: PTK2
0: all other assays above

COc1ccc(C(=C2C(=O)Nc3ccccc32)c2ccc(OC)cc2)cc1 (10 µM)
1: [1] | [2]
0: all other assays above

CC(C)c1cnc(-c2cc(Cl)ccc2F)cc1Nc1ccncc1C(=O)NC(CO)CO (2.5 µM)
0: all assays above
